Reference: PubChem BioAssay AID743121 (NCATS, 2013)

Purpose: 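Partners whose loss is lethal together with topoisomerase I blockade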 (primary screen)
Cell system: MDA-MB-231 cells, a human breast cancer line
Knock-down reagent: single siRNA against human genes, 20 nM siRNA (0.8 pmol per well)
Timing: 120 h (drug added 48 h after transfection, read 72 h later)
Treatment: camptothecin 20 nM (about EC30) for 72 h; vehicle 0.1% DMSO in parallel plates
Detection: 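Cell viability by ATP luminescence (CellTiter-Glo) as % of non-targeting siRNA wells, and the log2 ratio of viability without drug over viability with camptothecin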
Reading the numbers: log2 vehicle/camptothecin viability: higher = stronger sensitisation to camptothecin; viability with camptothecin and viability without drug: higher = more viable cells
Hit rule: 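Active genes have an RSA gene-level p-value below 0.001, computed from the ratios of their separate siRNAs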
The deposit covers about 26,000 reagents; shown is a part drawn at random. Over the whole deposit, 167 (0.63%) were called active. 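Calls are per gene from RSA p-values that are not deposited; an individual active-marked siRNA can sensitise only weakly.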 Entries without a mark were called inactive. The numbers tell different reagents against one gene apart.

Gene	reagent no.	log2 vehicle/camptothecin viability	viability with camptothecin (% of control)	viability without drug (% of control)
PCDHB1 (protocadherin beta 1)	1	-0.315	58.8	47.3
PCDHB1 (protocadherin beta 1)	2	0.00852	70.5	70.9
PCDHB1 (protocadherin beta 1)	3	-0.11	86.8	80.5
PCDHB1 (protocadherin beta 1)	4	-0.0271	87	85.4
RXRA (retinoid X receptor alpha)	1	-0.405	36.4	27.5
RXRA (retinoid X receptor alpha)	2	-0.471	37.5	27.1
RXRA (retinoid X receptor alpha)	3	-0.449	65	47.6
RXRA (retinoid X receptor alpha)	4	-0.109	66.9	62.1
MUC5AC (mucin 5AC, oligomeric mucus/gel-forming)	1	1.22	9.68	22.5
PDCD1 (programmed cell death 1)	1	0.264	49	58.8
PDCD1 (programmed cell death 1)	2	0.275	62.7	75.9
PDCD1 (programmed cell death 1)	3	-0.106	104	96.9
PDCD1 (programmed cell death 1)	4	-0.671	66.4	41.7
MAPK9 (mitogen-activated protein kinase 9)	1	-0.244	57.9	48.9
MAPK9 (mitogen-activated protein kinase 9)	2	0.315	66.8	83.1
MAPK9 (mitogen-activated protein kinase 9)	3	-0.335	85.7	67.9
MAPK9 (mitogen-activated protein kinase 9)	4	-0.0429	87	84.4
CPO (carboxypeptidase O)	1	0	87.1	87.1
CPO (carboxypeptidase O)	2	-0.362	67.1	52.2
CPO (carboxypeptidase O)	3	-0.152	92.5	83.3
CPO (carboxypeptidase O)	4	0.0698	96.8	102
ALDH1A1 (aldehyde dehydrogenase 1 family member A1)	1	-0.0208	44.2	43.6
ALDH1A1 (aldehyde dehydrogenase 1 family member A1)	2	-0.0245	98.1	96.4
ALDH1A1 (aldehyde dehydrogenase 1 family member A1)	3	-0.236	106	89.9
ALDH1A1 (aldehyde dehydrogenase 1 family member A1)	4	0.124	89.4	97.5
TREML4 (triggering receptor expressed on myeloid cells like 4)	1	-0.501	68.1	48.1
TREML4 (triggering receptor expressed on myeloid cells like 4)	2	-0.705	59.8	36.7
TREML4 (triggering receptor expressed on myeloid cells like 4)	3	-0.127	107	98
TREML4 (triggering receptor expressed on myeloid cells like 4)	4	-0.642	78	50
KLK4 (kallikrein related peptidase 4)	1	0.551	74.2	109
KLK4 (kallikrein related peptidase 4)	2	0.775	50.7	86.7
KLK4 (kallikrein related peptidase 4)	3	-0.0521	97.8	94.3
KLK4 (kallikrein related peptidase 4)	4	-0.103	91	84.8

The list goes on, starting with the last 3 of the part before.
Gene	reagent no.	log2 vehicle/camptothecin viability	viability with camptothecin (% of control)	viability without drug (% of control)
KLK4 (kallikrein related peptidase 4)	2	0.775	50.7	86.7
KLK4 (kallikrein related peptidase 4)	3	-0.0521	97.8	94.3
KLK4 (kallikrein related peptidase 4)	4	-0.103	91	84.8
KDM2A (lysine demethylase 2A)	1	-0.183	106	93.4
KDM2A (lysine demethylase 2A)	2	-0.111	41.6	38.5
KDM2A (lysine demethylase 2A)	3	0.0412	75.4	77.5
KDM2A (lysine demethylase 2A)	4	0.196	44.7	51.2
CXCR5 (C-X-C motif chemokine receptor 5)	1	-0.378	103	79.5
CXCR5 (C-X-C motif chemokine receptor 5)	2	0.275	89.7	108
CXCR5 (C-X-C motif chemokine receptor 5)	3	-0.296	75.2	61.3
CXCR5 (C-X-C motif chemokine receptor 5)	4	0.0359	58	59.4
GPR27 (G protein-coupled receptor 27)	1	-0.191	85.8	75.2
GPR27 (G protein-coupled receptor 27)	2	-0.481	55.8	39.9
GPR27 (G protein-coupled receptor 27)	3	-0.129	17.2	15.7
GPR27 (G protein-coupled receptor 27)	4	-0.173	94	83.4
KCNG4	1	-0.115	53.2	49.1
KCNG4	2	-0.113	106	98
KCNG4	3	-0.433	54.3	40.2
KCNG4	4	-0.929	77.8	40.9
XPO5 (exportin 5)	1	-0.292	90.4	73.8
XPO5 (exportin 5)	2	-0.0882	55.9	52.6
XPO5 (exportin 5)	3	-0.57	93.8	63.2
XPO5 (exportin 5)	4	0.204	73	84.1
PHKA2 (phosphorylase kinase regulatory subunit alpha 2)	1	-0.133	46	41.9
PHKA2 (phosphorylase kinase regulatory subunit alpha 2)	2	-0.256	62.1	52
PHKA2 (phosphorylase kinase regulatory subunit alpha 2)	3	-0.0591	92	88.3
PHKA2 (phosphorylase kinase regulatory subunit alpha 2)	4	-0.36	65.1	50.7
OR4C11 (olfactory receptor family 4 subfamily C member 11)	1	-0.122	93	85.5
OR4C11 (olfactory receptor family 4 subfamily C member 11)	2	-0.421	76.4	57.1
OR4C11 (olfactory receptor family 4 subfamily C member 11)	3	-0.142	112	102
OR4C11 (olfactory receptor family 4 subfamily C member 11)	4	-0.187	106	93.3
CCKAR (cholecystokinin A receptor)	1	-0.0617	24.9	23.8
CCKAR (cholecystokinin A receptor)	2	-0.126	52.4	48
CCKAR (cholecystokinin A receptor)	3	0.261	30.6	36.6
CCKAR (cholecystokinin A receptor)	4	-0.256	108	90.3
ANAPC5 (anaphase promoting complex subunit 5)	1	-0.056	70.3	67.6
ANAPC5 (anaphase promoting complex subunit 5)	2	-0.178	83.9	74.2
ANAPC5 (anaphase promoting complex subunit 5)	3	0.628	49.9	77.1
ANAPC5 (anaphase promoting complex subunit 5)	4	-0.594	79	52.3
